Most values lie at the level of the controls, where differences are scatter.
Legend:
Assay in all cases: normalised response (% of control), CellTox Green; higher = less cell death (100 = DMSO, 0 = benzethonium chloride kill control)
Settings in all cases: incubation time: 72 h
BT-474 = test system: BT-474
Protocol: (§1)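 DSRT, 72 h incubation, CellTox Green / CellTiter-Glo readout. Signal is normalised to DMSO and benzethonium chloride controls. Value is the normalised response at dose 2.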

BT-549 = test system: BT-549
Protocol: as §1

CAL-120 = test system: CAL-120
Protocol: as §1

CAL-148 = test system: CAL-148
Protocol: as §1

CAL-51 = test system: CAL-51
Protocol: as §1

CAL-85-1 = test system: CAL-85-1
Protocol: as §1

DU-4475 = test system: DU-4475
Protocol: as §1

HCC1143 = test system: HCC1143
Protocol: as §1

HCC1599 = test system: HCC1599
Protocol: as §1

HCC1937 = test system: HCC1937
Protocol: as §1

HDQ-P1 = test system: HDQ-P1
Protocol: as §1

Hs578T = test system: Hs578T
Protocol: as §1

MCF-10A = test system: MCF-10A
Protocol: as §1

MDA-MB-231 = test system: MDA-MB-231
Protocol: as §1

MDA-MB-436 = test system: MDA-MB-436
Protocol: as §1

MDA-MB-453 = test system: MDA-MB-453
Protocol: as §1

MDA-MB-468 = test system: MDA-MB-468
Protocol: as §1

MFM-223 = test system: MFM-223
Protocol: as §1

Cc1c(Cn2c(C)nc3c(C(=O)O)cc(N4CCOCC4)cc32)cccc1C(F)(F)F (10 nM)
normalised response (BT-474): 101% | normalised response (BT-549): 109% | normalised response (CAL-120): 103% | normalised response (CAL-148): 103% | normalised response (CAL-51): 103% | normalised response (CAL-85-1): 101% | normalised response (DU-4475): 112% | normalised response (HCC1143): 120% | normalised response (HCC1599): 123% | normalised response (HCC1937): 130% | normalised response (HDQ-P1): 120% | normalised response (Hs578T): 130% | normalised response (MCF-10A): 99.1% | normalised response (MDA-MB-231): 125% | normalised response (MDA-MB-436): 75.5% | normalised response (MDA-MB-453): 107% | normalised response (MDA-MB-468): 108% | normalised response (MFM-223): 104%

COc1cc2c(Oc3ccc4[nH]c(C)cc4c3F)ncnc2cc1OCCCN1CCCC1 [Cediranib] (1 nM)
normalised response (BT-474): 101% | normalised response (BT-549): 68.4% | normalised response (CAL-120): 98.2% | normalised response (CAL-148): 103% | normalised response (CAL-51): 115% | normalised response (CAL-85-1): 96.2% | normalised response (DU-4475): 109% | normalised response (HCC1143): 111% | normalised response (HCC1599): 118% | normalised response (HCC1937): 113% | normalised response (HDQ-P1): 125% | normalised response (Hs578T): 116% | normalised response (MCF-10A): 99.6% | normalised response (MDA-MB-231): 97.8% | normalised response (MDA-MB-436): 79.8% | normalised response (MDA-MB-453): 105% | normalised response (MDA-MB-468): 58.8% | normalised response (MFM-223): 97.5%

CO[C@@H](C(=O)N1Cc2[nH]nc(NC(=O)c3ccc(N4CCN(C)CC4)cc3)c2C1)c1ccccc1 [Danusertib] (10 nM)
normalised response (BT-474): 96.6% | normalised response (BT-549): 102% | normalised response (CAL-120): 104% | normalised response (CAL-148): 88.8% | normalised response (CAL-51): 75.5% | normalised response (CAL-85-1): 95.6% | normalised response (DU-4475): 107% | normalised response (HCC1143): 110% | normalised response (HCC1599): 113% | normalised response (HCC1937): 96.8% | normalised response (HDQ-P1): 114% | normalised response (Hs578T): 51.6% | normalised response (MCF-10A): 111% | normalised response (MDA-MB-231): 97.4% | normalised response (MDA-MB-436): 114% | normalised response (MDA-MB-453): 104% | normalised response (MDA-MB-468): 79.5% | normalised response (MFM-223): 100%

NC(=O)c1cccc2cn(-c3ccc([C@@H]4CCCNC4)cc3)nc12 [MK-4827] (10 nM)
normalised response (BT-474): 95.8% | normalised response (BT-549): 96.5% | normalised response (CAL-120): 103% | normalised response (CAL-148): 92.2% | normalised response (CAL-51): 112% | normalised response (CAL-85-1): 95.6% | normalised response (DU-4475): 107% | normalised response (HCC1143): 111% | normalised response (HCC1599): 116% | normalised response (HCC1937): 84.8% | normalised response (HDQ-P1): 62% | normalised response (Hs578T): 116% | normalised response (MCF-10A): 112% | normalised response (MDA-MB-231): 69.5% | normalised response (MDA-MB-436): 94.2% | normalised response (MDA-MB-453): 107% | normalised response (MDA-MB-468): 99.6% | normalised response (MFM-223): 103%

CC1(C)CNc2cc(NC(=O)c3cccnc3NCc3ccncc3)ccc21 [Motesanib] (10 nM)
normalised response (BT-474): 100% | normalised response (BT-549): 95.9% | normalised response (CAL-120): 98.4% | normalised response (CAL-148): 64.2% | normalised response (CAL-51): 102% | normalised response (CAL-85-1): 94.5% | normalised response (DU-4475): 101% | normalised response (HCC1143): 109% | normalised response (HCC1599): 102% | normalised response (HCC1937): 74.1% | normalised response (HDQ-P1): 97.2% | normalised response (Hs578T): 94% | normalised response (MCF-10A): 99.7% | normalised response (MDA-MB-231): 105% | normalised response (MDA-MB-436): 77% | normalised response (MDA-MB-453): 96.3% | normalised response (MDA-MB-468): 79% | normalised response (MFM-223): 98.9%

COC(=O)C[C@](O)(CCCC(C)(C)O)C(=O)O[C@@H]1C(OC)=C[C@]23CCCN2CCc2cc4c(cc2[C@H]13)OCO4 [Omacetaxine] (10 nM)
normalised response (BT-474): 103% | normalised response (BT-549): 84.8% | normalised response (CAL-120): 103% | normalised response (CAL-148): 112% | normalised response (CAL-51): 114% | normalised response (CAL-85-1): 96.1% | normalised response (DU-4475): 115% | normalised response (HCC1143): 116% | normalised response (HCC1599): 124% | normalised response (HCC1937): 112% | normalised response (HDQ-P1): 110% | normalised response (Hs578T): 128% | normalised response (MCF-10A): 122% | normalised response (MDA-MB-231): 119% | normalised response (MDA-MB-436): 106% | normalised response (MDA-MB-453): 110% | normalised response (MDA-MB-468): 98.1% | normalised response (MFM-223): 105%

CN(C)C[C@@H]1CCn2cc(c3ccccc32)C2=C(C(=O)NC2=O)c2cn(c3ccccc23)CCO1 [Ruboxistaurin] (10 nM)
normalised response (BT-474): 102% | normalised response (BT-549): 100% | normalised response (CAL-120): 97.3% | normalised response (CAL-148): 103% | normalised response (CAL-51): 81.2% | normalised response (CAL-85-1): 95.8% | normalised response (DU-4475): 96.2% | normalised response (HCC1143): 100% | normalised response (HCC1599): 95.6% | normalised response (HCC1937): 98% | normalised response (HDQ-P1): 58% | normalised response (Hs578T): 107% | normalised response (MCF-10A): 71.1% | normalised response (MDA-MB-231): 97.5% | normalised response (MDA-MB-436): 100% | normalised response (MDA-MB-453): 96% | normalised response (MDA-MB-468): 105% | normalised response (MFM-223): 89.2%

Clc1ccc(Nc2nnc(Cc3ccncc3)c3ccccc23)cc1 [Vatalanib] (10 nM)
normalised response (BT-474): 99% | normalised response (BT-549): 91.6% | normalised response (CAL-120): 109% | normalised response (CAL-148): 101% | normalised response (CAL-51): 111% | normalised response (CAL-85-1): 101% | normalised response (DU-4475): 113% | normalised response (HCC1143): 127% | normalised response (HCC1599): 120% | normalised response (HCC1937): 95.4% | normalised response (HDQ-P1): 71% | normalised response (Hs578T): 121% | normalised response (MCF-10A): 106% | normalised response (MDA-MB-231): 107% | normalised response (MDA-MB-436): 107% | normalised response (MDA-MB-453): 108% | normalised response (MDA-MB-468): 55.5% | normalised response (MFM-223): 99.5%
